# Assay results published in US20130216485A1, “Dentifrice Composition with Reduced Astringency” (Colgate-Palmolive Company, priority 2010, published 2013).
# Test: ESCA surface composition of treated hydroxyapatite disks
# Details: average of all disks
structure (smiles),measurement,setting,value
"O=P(O)(O)O[C@H]1[C@H](OP(=O)(O)O)[C@@H](OP(=O)(O)O)[C@H](OP(=O)(O)O)[C@@H](OP(=O)(O)O)[C@H]1OP(=O)(O)O [2:1 Phytic acid, phytic acid (inositol hexaphosphate)]",ESCA Ratio P/Ca,,0.96
same,"ESCA surface composition, C",,27.24 Atomic Percent
same,"ESCA surface composition, Ca",,9.29 Atomic Percent
same,"ESCA surface composition, Mg",,0.52 Atomic Percent
same,"ESCA surface composition, Na",,6.69 Atomic Percent
same,"ESCA surface composition, O",,42.35 Atomic Percent
same,ESCA Ratio P/Ca,listed as phytic acid,significant increase
